{"source": "PubChem BioAssay AID686937 (Drosophila RNAi Screening Center, 2013)", "aim": "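Genes in the fly needed for secretion of protein constitutively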 (primary screen)", "system": "Drosophila S2 cells expressing secreted horseradish peroxidase", "reagent": "long dsRNA against Drosophila genes", "time to read-out": "about 5.5 days (5 days dsRNA, then 12 h reporter induction)", "challenge": "reporter expression induced after 5 days of dsRNA, read 12 h later; inducer not stated", "measured": "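After 5 days of dsRNA and 12 h of reporter induction, medium peroxidase read by chemiluminescence and scored as per-plate z-score; higher values mean more reporter released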", "reading the numbers": "z-score: higher = more reporter secreted into medium", "note": "The deposit covers about 23,000 reagents; this is a random part of those with a known target gene and a result. 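Reduced-secretion tags in replicate 1 do not always agree with the z-scores; no criterion for assigning the tags was given.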 Not all columns of the deposit are shown. The record does not give: the amount of reagent."}
{"gene knocked down":"CG8319","DRSC id":"DRSC16407","z-score, replicate 1":0.22}
{"gene knocked down":"POLDIP2 (Polymerase (DNA-directed), delta interacting protein 2)","DRSC id":"DRSC12194","z-score, replicate 1":0.4}
{"gene knocked down":"Fancm (Fanconi anemia group M helicase)","DRSC id":"DRSC16348","z-score, replicate 1":0.21}
{"gene knocked down":"qm (quemao)","DRSC id":"DRSC11386","z-score, replicate 1":0.13}
{"gene knocked down":"CG11663","DRSC id":"DRSC17793","z-score, replicate 1":0.11}
{"gene knocked down":"roh (reduction of Rh1)","DRSC id":"DRSC04003","z-score, replicate 1":-1.01}
{"gene knocked down":"CG11248","DRSC id":"DRSC11644","z-score, replicate 1":0.3}
{"gene knocked down":"CG30487","DRSC id":"DRSC05377","z-score, replicate 1":0.27}
{"gene knocked down":"osa","DRSC id":"DRSC17022","z-score, replicate 1":0.13}
{"gene knocked down":"Saf-B (Scaffold attachment factor B)","DRSC id":"DRSC16167","z-score, replicate 1":0.31}
{"gene knocked down":"Ir94b (Ionotropic receptor 94b)","DRSC id":"DRSC21439","z-score, replicate 1":0.7}
{"gene knocked down":"Tdrd3 (Tudor domain containing 3)","DRSC id":"DRSC10016","z-score, replicate 1":0.1}
{"gene knocked down":"Mnr (Membrane-bound Notch regulator)","DRSC id":"DRSC20549","z-score, replicate 1":0.23}
{"gene knocked down":"Mnr (Membrane-bound Notch regulator)","DRSC id":"DRSC20550","z-score, replicate 1":0.58}
{"gene knocked down":"Mnr (Membrane-bound Notch regulator)","DRSC id":"DRSC22441","z-score, replicate 1":-0.55}
{"gene knocked down":"Pgm2a (Phosphoglucomutase 2a)","DRSC id":"DRSC07068","z-score, replicate 1":0.25}
{"gene knocked down":"Gart (GART trifunctional enzyme)","DRSC id":"DRSC03481","z-score, replicate 1":0.03}
{"gene knocked down":"Remo (Remoulade)","DRSC id":"DRSC19710","z-score, replicate 1":0.46}
{"gene knocked down":"CG14424","DRSC id":"DRSC18472","z-score, replicate 1":-0.1}
{"gene knocked down":"CG11099","DRSC id":"DRSC06034","z-score, replicate 1":0.21}
{"gene knocked down":"CG14420","DRSC id":"DRSC17917","z-score, replicate 1":0.5}
{"gene knocked down":"CG14380","DRSC id":"DRSC14840","z-score, replicate 1":0.22}
{"gene knocked down":"CG13545","DRSC id":"DRSC04187","z-score, replicate 1":0.12}
{"gene knocked down":"CG16787","DRSC id":"DRSC04282","z-score, replicate 1":-0.13}
{"gene knocked down":"CG8483","DRSC id":"DRSC16430","z-score, replicate 1":0.21}
{"gene knocked down":"CG7231","DRSC id":"DRSC03034","z-score, replicate 1":0.35}
{"gene knocked down":"CG34436","DRSC id":"DRSC15164","z-score, replicate 1":0.39}

A run of entries of the results above, for reference:
{"gene knocked down":"osa","DRSC id":"DRSC17022","z-score, replicate 1":0.13}
{"gene knocked down":"Saf-B (Scaffold attachment factor B)","DRSC id":"DRSC16167","z-score, replicate 1":0.31}
{"gene knocked down":"Ir94b (Ionotropic receptor 94b)","DRSC id":"DRSC21439","z-score, replicate 1":0.7}
